# Experimental data as given in PubChem BioAssay AID504834 (National Center for Advancing Translational Sciences (NCATS), 2011).
# Out of some 320,000 compounds screened, about 22,000 (6.9%) were called active. Inconclusive results, whose numbers are uncertain, are shown with a selection of clear calls. Calls follow the shape of the dose curve; as a rule, active = well fitted inhibition curve with a large enough effect; inconclusive = small, poorly fitted or top-dose-only effect, or another doubt; inactive = no such curve, though single readings can be large or run the other way. Potencies of inconclusive entries are doubtful fits and often do not repeat.
# Assay: Primary qHTS for delayed death inhibitors of the malarial parasite plastid, 96 hour incubation
# Conditions: P. falciparum luciferase reporter growth; series mostly up to 28.7 µM
# How it was run: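 Parasite growth measured via integrated firefly luciferase reporter in P. falciparum. Infected erythrocytes at 2% hematocrit, 0.05% parasitemia final were treated 96 hours at 37 C under 5% CO2, and luminescence was read.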
# Potency is read from the fitted curve at half-maximal effect.
row,Compound,Potency
1,COc1ccc(CC(=O)OCC(=O)N2CCN(S(=O)(=O)c3ccc(C)cc3C)CC2)cc1,"inconclusive: 13.1 µM [inhibitor, single point]"
2,CN1C(=O)/C(=C\c2ccccc2F)Sc2ccc(C(=O)NC3CCN(Cc4ccccc4)CC3)cc21,"inconclusive: 10.4 µM [inhibitor, single point]"
3,Cc1ccc2c(c1)N(CC(=O)NC1CCCC1)C(=O)CO2,"inconclusive: 11.7 µM [inhibitor, single point]"
4,Cc1onc(-c2ccccc2)c1C(=O)N1CCN(c2ncccc2C(F)(F)F)CC1,"inconclusive: 11.7 µM [inhibitor, single point]"
5,c1ccc(OCCCCn2cnc3ccccc32)cc1,inactive
6,Cc1nonc1C(=O)N/N=C/c1ccncc1,active: 8.28 µM
7,COC(=O)c1cc(NC(=O)c2cccc(F)c2)cc(C(=O)OC)c1,"inconclusive: 0.0033 µM [inhibitor, partial curve, poor fit]"
8,O=C(CSc1nc(-c2ccc(F)cc2)cs1)N1CCc2ccccc21,inactive
9,COc1ccc(C(=O)NC(Nc2ccc(C)cc2)C(Cl)(Cl)Cl)cc1 (centres undefined),inactive
10,CCOc1ccccc1CN1CCNC(=O)C1CC(=O)NCc1cc(C)n(C)n1 (centres undefined),active: 2.08 µM
11,COC(=O)c1c(C(=O)OC)c2cc(C(=O)c3ccccc3)ccn2c1Cl,"inconclusive: 14.7 µM [inhibitor, partial curve, poor fit]"
12,O=C(Cn1[nH]c(=O)c2ccccc2c1=O)Nc1cccc(S(=O)(=O)N2CCCCCC2)c1,"inconclusive: 18.5 µM [inhibitor, single point]"
13,Cc1ccc(N(Cc2ccccc2)C(=O)CN2C(=O)NC3(CCCC3)C2=O)cc1,"inconclusive: 9.28 µM [inhibitor, partial curve, poor fit]"
14,CCc1ccc(C(CNC(=O)c2ccc3c(=O)n(-c4ccccc4F)c(=S)[nH]c3c2)N(C)C)cc1 (centres undefined),"inconclusive: 11.7 µM [inhibitor, single point]"
15,COc1ccc(NC(=O)c2cc3n(n2)C(C(F)(F)F)CC(c2ccc(OC)cc2)N3)cc1 (centres undefined),"inconclusive: 14.7 µM [inhibitor, partial curve, poor fit]"
16,COc1ccc(NC(=O)CC2Sc3ncnn3C2=O)cc1 (centres undefined),"inconclusive: 18.5 µM [inhibitor, single point]"
17,COc1cccc(CN2C(=NC(=O)CCC3CCCC3)SC3CS(=O)(=O)CC32)c1 (centres undefined),"inconclusive: 18.5 µM [inhibitor, single point]"
18,CCOC(=O)c1ccc(-[n+]2c(-c3ccccc3)cc(-c3ccccc3)cc2-c2ccccc2)cc1,active: 1.17 µM
19,CN1CCN(C(=O)c2ccc3nc(-c4ccccc4)c(-c4ccccc4)nc3c2)CC1,inactive
20,CC(C)CCC(CC(C)O)C(=O)NNC(=S)Nc1ccccc1 (centres undefined),inactive
21,COc1cc2c(cc1OC)-c1cc(N3CCc4ccccc43)nc(=O)n1CC2,active: 11.7 µM
22,CCOCC(=O)Nc1cc(C(=O)NCCc2ccccc2)ccc1Cl,inactive
23,COc1ccc(NC(=O)c2ccc3nc(C)sc3c2)cc1,"inconclusive: 13.1 µM [inhibitor, single point]"

row,Compound,Potency
1,Cc1ccc(SCC2CNc3nc4ccccc4c(=O)n32)c(C)c1 (centres undefined),"inconclusive: 18.5 µM [inhibitor, single point]"
2,CC(C)(C)C(=O)Nc1ccc(C(=O)NNC(=O)c2ccccc2)cc1,active: 13.1 µM
3,COc1ccc(Cl)cc1NC(=O)c1cc(-c2ccccc2)on1,"inconclusive: 18.5 µM [inhibitor, single point]"
4,CC(=O)c1cccc(NC(=O)CSc2ncc(C(=O)Nc3ccccc3)c(=O)n2C)c1,inactive
5,Cc1ccc(N(CC(=O)NC2CCCC2)C(=O)c2ccc(C)s2)cc1,inactive
6,Cc1nn(-c2ccccc2)c2nc(-c3ccco3)cc(C(=O)O)c12,inactive
7,CCCCC(=Nc1ccccc1OC)C1=C(O)CC(c2ccccc2)CC1=O (centres undefined),"inconclusive: 11.7 µM [inhibitor, single point]"
8,Cc1ccc2nc(N/N=C\c3ccc([N+](=O)[O-])o3)nc(-c3ccccc3)c2c1,"inconclusive: 18.5 µM [inhibitor, single point]"
9,O=C(NCc1ccco1)c1cccc(S(=O)(=O)N2CCN(Cc3ccccc3)CC2)c1,"inconclusive: 0.329 µM [inhibitor, full curve, poor fit]"
10,N=c1n(CCO)c2ccccc2n1CCOc1ccccc1,"inconclusive: 10.4 µM [inhibitor, single point]"
11,O=C(COC(=O)C1=COCCO1)Nc1ccccc1OC(F)F,inactive
12,CCOc1ccccc1N(CC(=O)Nc1ccccc1F)S(=O)(=O)c1ccccc1,"inconclusive: 18.5 µM [inhibitor, partial curve, poor fit]"
13,CCCOC(=O)C1=C(C)NC2=C(C(=O)CC(C)(C)C2)C1c1cccnc1 (centres undefined),active: 10.4 µM
14,Cc1ccc(Oc2cc([N+](=O)[O-])cc3c2C(=O)Nc2ccccc2O3)cc1,inactive
15,c1ccc(NC2=NCCN2CCCC2CCCC2)cc1,"inconclusive: 18.5 µM [inhibitor, single point]"
16,CC(=O)Oc1ccccc1C1=NN(C(=O)/C=C/c2ccccc2)C(c2ccccc2)C1 (centres undefined),"inconclusive: 18.5 µM [inhibitor, single point]"
17,CCOC(=O)c1sc(NC(=O)CCN2C(=O)c3ccccc3C2=O)c(C(=O)OCC)c1C,active: 13.1 µM
18,COc1ccc(-c2csc(Nc3cccc(C)n3)n2)cc1,"inconclusive: 8.28 µM [inhibitor, single point]"
19,Cc1cc2ccccc2n1CCNC(=O)c1cccs1,"inconclusive: 18.5 µM [inhibitor, single point]"
20,Cc1ccc(N2CN(Cc3cccnc3)CNC2=S)c(C)c1,inactive
21,C=C(C)COc1ccc(-c2[nH]ncc2-c2ccc(OC)c(OC)c2)c(O)c1,active: 2.33 µM
22,CCCc1cc(=O)[nH]c(SCC(=O)N2CCN(S(=O)(=O)c3ccc4ccccc4c3)CC2)n1,"inconclusive: 0.37 µM [inhibitor, full curve, poor fit]"
23,CCOc1cc(S(=O)(=O)NCc2cccs2)ccc1Cl,"inconclusive: 2.62 µM [inhibitor, full curve]"

row,Compound,Potency
1,N#C/C(=C\Nc1ccccc1O)c1nc2ccccc2o1,active: 10.4 µM
2,COc1ccc(CCNC(=O)CSc2nnc3ccc(-c4ccccn4)nn23)cc1OC,"inconclusive: 0.117 µM [inhibitor, partial curve, poor fit]"
3,Cc1cc(NS(=O)(=O)c2ccc(NC(=O)C(C)Oc3cccc(C)c3C)cc2)nc(C)n1 (centres undefined),"inconclusive: 11.7 µM [inhibitor, partial curve, poor fit]"
4,CCCCCCc1cc2cc(-c3nnc(-c4ccccc4)o3)c(=O)oc2cc1O,"inconclusive: 2.62 µM [inhibitor, single point]"
5,Cc1nc2ccccc2c2oc(C(=O)N3CCN(C(=O)c4ccco4)CC3)cc12,"inconclusive: 10.4 µM [inhibitor, single point]"
6,O=C(Nc1cc(Cl)cc(Cl)c1)N1CCN(C(=O)C2CCCO2)CC1 (centres undefined),"inconclusive: 18.5 µM [inhibitor, single point]"
7,COc1ccc(Cc2nnc(NC(=O)c3c(-c4ccccc4)noc3C)s2)cc1OC,active: 10.4 µM
8,CC(C)(C)C1=C(C#N)C(c2cc3c(cc2Br)OCO3)C(C#N)=C(N)O1 (centres undefined),inactive
9,C[n+]1ccc(CC2C(=[N+]([O-])[O-])C=Nc3ncnn32)cc1 (centres undefined),inactive
10,CSc1ccc(/C=N/NC(=O)c2ccc(O)cc2)cc1,"inconclusive: 1.65 µM [inhibitor, full curve, poor fit]"
11,CCc1cc2c(=O)[nH]c(Cc3ccc(Cl)cc3)nc2s1,"inconclusive: 0.131 µM [inhibitor, full curve, poor fit]"
12,O=C(CCC1CCCN(C(=O)c2ccoc2)C1)NCc1ccccc1F (centres undefined),inactive
13,Fc1ccccc1CSc1nnc2ccc(-c3ccncc3)nn12,"inconclusive: 3.29 µM [inhibitor, partial curve, poor fit]"
14,CCOC(=O)c1[nH]c(C)c(C(=O)OC(C)C(=O)Nc2ncc(Cl)cc2Cl)c1C (centres undefined),"inconclusive: 0.233 µM [inhibitor, full curve]"
15,CC1CC(C)CN(CCC(=O)Nc2ccc(Br)cc2)C1 (centres undefined),active: 7.38 µM
16,Cc1cc(-c2nn(-c3ccccc3F)cc2CNCCc2cnc[nH]2)c(C)s1,"inconclusive: 9.28 µM [inhibitor, single point]"
17,CC1=C(/C=C/c2ccccc2)CCN(C)C1,"inconclusive: 18.5 µM [inhibitor, single point]"
18,COc1cc(C(=O)Nc2ccc(NC(=O)C3CC3)nc2)cc(OC)c1OC,"inconclusive: 14.7 µM [inhibitor, single point]"
19,Cn1c(=O)c2c(nc(Sc3ncccn3)n2Cc2ccc(Cl)cc2)n(C)c1=O,"inconclusive: 11.7 µM [inhibitor, partial curve, poor fit]"
20,Cc1cc(C)cc(NCc2cc(=O)oc3cc(C)c(O)cc23)c1,"inconclusive: 11.7 µM [inhibitor, single point]"
21,CC(C)Cc1nnc(NC(=O)c2cc(-c3ccncc3)nc3ccccc23)s1,"inconclusive: 14.7 µM [inhibitor, single point]"
22,O=C1C=C(Nc2ccc(Cl)cc2)CC(c2ccc(Cl)cc2)C1 (centres undefined),"inconclusive: 2.62 µM [inhibitor, single point]"
23,Cc1onc(-c2c(F)cccc2Cl)c1C(=O)Nc1cccc(S(=O)(=O)NC2=NCCC2)c1,inactive

# Retrieved by structure from above:
row,Compound,Potency
16,Cc1cc(-c2nn(-c3ccccc3F)cc2CNCCc2cnc[nH]2)c(C)s1,"inconclusive: 9.28 µM [inhibitor, single point]"
13,Fc1ccccc1CSc1nnc2ccc(-c3ccncc3)nn12,"inconclusive: 3.29 µM [inhibitor, partial curve, poor fit]"
3,Cc1cc(NS(=O)(=O)c2ccc(NC(=O)C(C)Oc3cccc(C)c3C)cc2)nc(C)n1 (centres undefined),"inconclusive: 11.7 µM [inhibitor, partial curve, poor fit]"
8,CC(C)(C)C1=C(C#N)C(c2cc3c(cc2Br)OCO3)C(C#N)=C(N)O1 (centres undefined),inactive
